Results taken from US20120220577A1, “GLYCINE B ANTAGONISTS” (Merz Pharma GmbH & Co KgaA, priority 2009, published 2012).
Structures were worked out from names or drawings and are uncertain.

Columns and labels:
[1] = target: T1, NMDA receptor glycine B site (Rattus norvegicus, UniProt P35439); assay: Calcium FLIPR studies, rat cortical neurons (NMDA/D-Serine induced intracellular calcium); conditions: read-out: NMDA-FLIPR-rCTX-NAM - IC50, stimulation with 30 μM NMDA and 1 μM D-Serine, antagonist pre-incubated 10 min
[2] = target: glycine binding pocket of the NMDA receptor (Rattus norvegicus, UniProt P35439); assay: [3H]MDL-105,519 displacement studies (rat cortical membranes); conditions: read-out: NMDA-MDL 105519-r-CTX - IC50; displacement of 2 nM [3H]-MDL-105,519, rat cortical membranes
[3] = target: T1, NMDA receptor glycine B site; assay: Whole cell patch-clamp recordings, rat hippocampal neurons (NMDA/D-Serine currents); format: cell-based; conditions: read-out: NMDA-PC-r-HIC-NAM - IC50, NMDA 200 μM + D-Serine 1 μM, -70 mV
Experimental: Antagonistic potencies of the test compounds are functionally evaluated using electrophysiological whole cell patch-clamp recordings and/or fluorometric intracellular Ca^2+-imaging (FLIPR) screens.
Cell preparation is performed as described by Parsons, et al. (Neuropharmacology, 1998, 37(6), 719-727). The female Sprague-Dawley rat is anaesthetised by placing in a saturated CO2-euthanasia chamber under further quiet CO2-influx. Under these conditions the rat loses consciousness after a few seconds and is then sacrificed by cervical dislocation. After opening the abdominal cavity, embryos (E20) are removed and stored in ice cold Ca^2+- and Mg^2+-free Hank's Buffered Salt Solution (pH 7.3), containing 4 g/l glucose (HBSS-CMF). Hippocampi are then isolated from the brains of at least 8 embryos after decapitation, transferred into ice cold HBSS-CMF and washed 3 to 4 times.
Hippocampi are pre-incubated for 8 min with a 0.66% trypsin (Sigma-Aldrich) and 0.1% (20 U/ml) DNAase solution (Sigma-Aldrich) in Ca^2+-free Phosphate Buffered Saline (PBS-CF) and washed 3 times with HBSS-CMF. Cells are then mechanically dissociated by trituration in a PBS-CF solution containing 0.05% (10 U/ml) DNAase and 0.3% of the trypsin inhibitor ovomucoid (all from Sigma-Aldrich). […]

SMILES: O=C(O)COc1cccc(OCC(=O)O)c1NC(=O)COc1cc(C(=O)O)cc2cc(Cl)cc(Cl)c12
- IC50 [1]: 330 nM
- IC50 [2]: 43 nM
- IC50 [3]: 179 nM
